PubChem BioAssay AID1259254 | NCATS | 2017

Assay: 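Gene knock-downs that lead to re-replication, shown by excess G2 DNA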 (primary screen)
Cell system: human HCT116 colorectal cancer cells
Knock-down reagent: single siRNA against human genes
Time to read-out: 3 days
Detection: 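Imaged Hoechst DNA stain sorts each cell into a cycle phase by DNA amount; per plate, G2 fraction set to 0% for non-targeting and 100% for GMNN siRNA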
Direction: G2 robust z-score: higher = more G2 cells, more excess DNA replication
Call rule: 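An siRNA counts as active if its G2 robust z-score lies at least 5 MADs above the screen median; here such calls match roughly 38% of GMNN control or more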
Here is a random part of about 59,000 deposited reagents. About 1,550 of them (2.6%) were called active. 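G2 share is only a proxy for re-replication; each gene was hit by three separate siRNAs, and active genes were retested.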 The numbers tell different reagents against one gene apart. Further read-outs or replicates are left out here. No sequences are given here. Not given: the amount of reagent.

| target | siRNA no. | G2 robust z-score | Outcome |
| --- | --- | --- | --- |
| LOC648999 (retired record) | 1 | 0.87 | inactive |
| LOC648999 (retired record) | 2 | -0.744 | inactive |
| LOC648999 (retired record) | 3 | 0.403 | inactive |
| MED27 | 1 | 1.92 | inactive |
| MED27 | 2 | 3.44 | inactive |
| MED27 | 3 | 1.41 | inactive |
| CCR3 | 1 | -1.26 | inactive |
| CCR3 | 2 | -0.356 | inactive |
| CCR3 | 3 | 0.831 | inactive |
| TEK | 1 | 1.05 | inactive |
| TEK | 2 | -0.189 | inactive |
| TEK | 3 | 0.118 | inactive |
| C1D | 1 | 4.37 | inactive |
| C1D | 2 | -0.666 | inactive |
| C1D | 3 | 0.653 | inactive |
| PSPC1 | 1 | 0.686 | inactive |
| PSPC1 | 2 | -0.605 | inactive |
| PSPC1 | 3 | -0.742 | inactive |
| CDC40 | 1 | 0.769 | inactive |
| CDC40 | 2 | 1.6 | inactive |
| CDC40 | 3 | 3.81 | inactive |
| TSLIG1 | 1 | 6.78 | active |
| TSLIG1 | 2 | 1.56 | inactive |
| TSLIG1 | 3 | -0.0752 | inactive |

Looked up above.
Value of CDC40 #1 in “Outcome”: inactive
MED27 #1, G2 robust z-score → 1.92
For “Outcome”, C1D #2 shows inactive
LOC648999 (retired record) #1, G2 robust z-score: 0.87
Value for CCR3 #2 under “Outcome”: inactive
CCR3 #3, G2 robust z-score: 0.831

More results follow:
| target | siRNA no. | G2 robust z-score | Outcome |
| --- | --- | --- | --- |
| CASS4 | 1 | 3.33 | inactive |
| CASS4 | 2 | -1.09 | inactive |
| CASS4 | 3 | -0.399 | inactive |
| ZCCHC24 | 1 | 1.28 | inactive |
| ZCCHC24 | 2 | -0.484 | inactive |
| ZCCHC24 | 3 | 0.547 | inactive |
| ZZZ3 | 1 | 3.88 | inactive |
| ZZZ3 | 2 | 1.06 | inactive |
| ZZZ3 | 3 | -0.727 | inactive |
| POLR2E | 1 | 4.08 | inactive |
| POLR2E | 2 | 0.329 | inactive |
| POLR2E | 3 | 0.285 | inactive |
| CFAP184 | 1 | -0.25 | inactive |
| CFAP184 | 2 | -0.764 | inactive |
| CFAP184 | 3 | -0.623 | inactive |
| MAGEB1 | 1 | -0.756 | inactive |
| MAGEB1 | 2 | 1.13 | inactive |
| MAGEB1 | 3 | 3.02 | inactive |
| TSNARE1 | 1 | -0.328 | inactive |
| TSNARE1 | 2 | -0.482 | inactive |
| TSNARE1 | 3 | -0.917 | inactive |
| ZNF75A | 1 | 0.0894 | inactive |
| ZNF75A | 2 | 2.52 | inactive |
| ZNF75A | 3 | 0.248 | inactive |
| SUPT16H | 1 | 6.07 | active |
| SUPT16H | 2 | -0.806 | inactive |
| SUPT16H | 3 | 0.0163 | inactive |
| PBOV1 | 1 | -0.00435 | inactive |
| PBOV1 | 2 | 1.94 | inactive |
| PBOV1 | 3 | 0.455 | inactive |
| TRAPPC6B | 1 | -0.149 | inactive |
| TRAPPC6B | 2 | 0.861 | inactive |
| TRAPPC6B | 3 | -0.117 | inactive |
| PLSCR2 | 1 | -0.769 | inactive |
| PLSCR2 | 2 | 0.0592 | inactive |
| PLSCR2 | 3 | -0.142 | inactive |
| TRAM2 | 1 | 2.68 | inactive |
| TRAM2 | 2 | 1.25 | inactive |
| TRAM2 | 3 | 3.11 | inactive |
| BORCS7 | 1 | -0.484 | inactive |
| BORCS7 | 2 | 1.48 | inactive |
| BORCS7 | 3 | -0.481 | inactive |
| BMERB1 | 1 | -0.107 | inactive |
| BMERB1 | 2 | -0.257 | inactive |
| BMERB1 | 3 | 1.46 | inactive |
